Assay results from PubChem BioAssay AID624297 (National Center for Advancing Translational Sciences (NCATS), 2012).
In all, about 340,000 compounds went through this assay and about 6,200 (1.8%) were called active. This list was built around the results that the source calls inconclusive (neither active nor inactive); the mix of calls is not that of the screen. Calls follow the shape of the dose curve; as a rule, active = well fitted activation curve with a large enough effect; inconclusive = small, poorly fitted or top-dose-only effect; inactive = no such curve, though single readings can be large or run the other way. Potencies of inconclusive entries are doubtful fits and often do not repeat.

assay: A quantitative high throughput screen for small molecules that induce DNA re-replication in SW480 colon adenocarcinoma cells.; also: nearly all actives have a fitted effect of over 55% in size; as to re-replication activation: % of control where 0% means no effect; settings: Hoechst DNA content imaging, 48 h; re-replication activation: at 46.1 µM (top of the series) unless noted
Procedure, shortened: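 Quantitative HTS format with DMSO vehicle controls; 48 hr drug incubation at 37 C, then 40 min Hoechst staining and scanning imager measurement at 405 nm excitation.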
Potency is read from the fitted curve at half-maximal effect.

Compound	Potency	re-replication activation
O=S1(=O)CC/C(=N/Nc2ccc(C(F)(F)F)cn2)c2cc(F)ccc21	inconclusive: 20.6 µM [activator, single point]	
COC(=O)c1ccc(C)c(NC(=S)NCc2ccc(Cl)cc2)c1	inactive	
CCOC(=O)c1c(-c2ccccc2)csc1NC(=O)C(C)NCCCN1CCOCC1 (centres undefined)	inconclusive: 29.1 µM [activator, single point]	
CCN(CC(=O)NCc1ccc(Cl)cc1)C(=O)CSc1ccccc1F	inconclusive: 14.6 µM [activator, partial curve, poor fit]	
Cc1cc(C)cc(-n2cccc2/C=C2/C(=N)N3C(=NC2=O)SN=C3S(C)(=O)=O)c1	inactive	
Cn1cc(CN2CCC(n3nccc3NC(=O)CCOc3ccccc3)CC2)cn1	inconclusive: 0.206 µM [activator, full curve, poor fit]	
COc1ccccc1NC(=O)c1ccc(C)c(S(=O)(=O)N2CCCCC2)c1	inconclusive: 18.4 µM [activator, single point]	
COc1ccc(/C=C(\NC(=O)c2ccco2)C(=O)NCc2ccco2)cc1	inconclusive: 11.6 µM [activator, partial curve, poor fit]	
Cc1c(Cl)cccc1NC(=O)NCc1cccnc1	inconclusive: 23.1 µM [activator, single point]	
O=C(NNC(=O)c1cccc(S(=O)(=O)N2CCc3ccccc32)c1)c1ccccc1	inconclusive: 20.6 µM [activator, single point]	
O=C(NNC(=O)c1cc2ccccc2cc1O)NC1CCCCC1	inactive	
O=C(CCN1CCN(C(=O)c2ccccc2)CC1)c1ccc(Br)cc1	inconclusive: 29.1 µM [activator, single point]	
Fc1cnc(N2CCN(c3ccccc3)CC2)nc1N1CCN(c2ccccc2)CC1		inconclusive: 103% [activator]
O=C(Nc1ccccc1)C1=C[C@@H](c2ccc(C(F)(F)F)cc2)C[C@@H](OCc2ccc(CO)cc2)O1	inconclusive: 8.2 µM [activator, single point]	
CC(=O)Oc1ccc2nc(-c3ccc(Br)o3)oc(=O)c2c1	inconclusive: 29.1 µM [activator, single point]	
N#C/C(=C\c1ccccc1[N+](=O)[O-])C(=O)NC1CCCCC1	inconclusive: 29.1 µM [activator, single point]	
Cc1ccc(-c2cc(N)nc(-c3ccccc3)c2)cc1	inconclusive: 18.4 µM [activator, single point]	
CCN(C[C@H]1N[C@@](Cc2ccccc2)(C(=O)OC)[C@H]2C(=O)N(C)C(=O)[C@@H]12)C(=O)Nc1ccc(Cl)cc1	inconclusive: 29.1 µM [activator, single point]	
Cc1cc(NC(=O)C2CCN(S(=O)(=O)c3c(C)noc3C)CC2)ccc1Br	inconclusive: 6.51 µM [activator, partial curve]	
CCOC(=O)c1sc(-c2cccc(C(F)(F)F)c2)nc1O	inconclusive: 18.4 µM [activator, partial curve, poor fit]	
O=C(NCCCN1CCCC1=O)c1ccccc1OCc1ccc(Cl)cc1Cl	inconclusive: 10.3 µM [activator, partial curve]	
C/C(=N\NC(=O)c1ccc(-c2ccccc2)cc1)C1C(=O)c2ccccc2C1=O	inactive	

2 entries picked at random from the list so far:
Compound	Potency	re-replication activation
Cn1cc(CN2CCC(n3nccc3NC(=O)CCOc3ccccc3)CC2)cn1	inconclusive: 0.206 µM [activator, full curve, poor fit]	
CCN(C[C@H]1N[C@@](Cc2ccccc2)(C(=O)OC)[C@H]2C(=O)N(C)C(=O)[C@@H]12)C(=O)Nc1ccc(Cl)cc1	inconclusive: 29.1 µM [activator, single point]	

(more compounds)

Compound	Potency	re-replication activation
COC(=O)C1=CN(c2ccc(OC)cc2)C=C(C(=O)OC)C1c1ccc([N+](=O)[O-])cc1	inactive	
CC1CCC(C(C)C)C(OC(=O)COC(=O)c2cccn2C)C1 (centres undefined)	inactive	
C/C(=N\Nc1ccc(S(N)(=O)=O)cc1[N+](=O)[O-])c1cccs1	inconclusive: 29.1 µM [activator, single point]	
O=C(CCl)Nc1ccc(Sc2ccc(NC(=O)CCl)cc2)cc1	active: 4.61 µM	
C[C@@H]1C[C@H](Nc2ccccc2)c2ccccc2N1C(=O)c1cccnc1	inconclusive: 18.4 µM [activator, single point]	
COC(=O)[C@H]1[C@H](c2ccccc2)[C@H](C(=O)OC)O[C@H]1c1ccccc1	inactive	
NC(CS)C(=O)O (centres undefined)	inactive	
Cc1cc(Br)ccc1NC(=O)CNC(=O)c1cnn(C)c1	inactive	
Brc1ccc(NC2=Nc3ccccc3CC2)cc1	inconclusive: 23.1 µM [activator, partial curve, poor fit]	
C=CCSC1=N/C(=C\c2ccc(C)o2)C(=O)S1	inconclusive: 6.51 µM [activator, single point]	
CCc1ccc(N2CC(C(=O)OCC(=O)Nc3ccc(C#N)cc3)CC2=O)cc1 (centres undefined)	inactive	
CCn1c(/C=C2/C(=O)N(C)c3ccccc32)nc2ccccc2c1=O	inconclusive: 23.1 µM [activator, partial curve, poor fit]	
CN(CC(=O)Nc1ccccc1Cl)C(=O)c1ccc(N2C(=O)CCC2=O)cc1	inactive	
COC(=O)C1=C(C)NC(=S)NC1c1ccc(-c2ccccc2C(=O)OC)o1 (centres undefined)	inactive	
NC1=NC(=O)/C(=C/c2c(OS(=O)(=O)c3ccc(Cl)cc3)ccc3ccccc23)S1	inconclusive: 14.6 µM [activator, single point]	
C=CCNC(=O)NC(=S)c1ccccc1	inconclusive: 29.1 µM [activator, single point]	
CC(C)c1csc(CN2CCCC(CCC(=O)NCc3ccccc3F)C2)n1 (centres undefined)	inconclusive: 29.1 µM [activator, single point]	
CCOC(=O)C1=C(C)NC2=C(C(=O)c3ccccc32)C1c1ccc(O)cc1 (centres undefined)	inconclusive: 6.51 µM [activator, single point]	
Cc1ccc(/C=C2/NC(=O)[C@H](C)NC2=O)cc1	inactive	
O=C1C=C(NCC2CCCO2)CC(c2ccccc2)C1 (centres undefined)	inconclusive: 29.1 µM [activator, single point]	
COP(=O)(OC)c1nc(-c2ccccc2)oc1NCc1ccccc1	inactive	
Cn1c(=O)n(C)c2cc(/C=N/N=C3/NC(=O)C(CC(=O)O)S3)ccc21 (centres undefined)	inconclusive: 0.092 µM [activator, full curve, poor fit]	
